# Laboratory results as given in publication doi:10.1101/2025.07.08.663636.
# By UniProt entry, the sequences of proteins in these tests, tags left out. Residues count along the entry.
# UniProt P11021, 25-407: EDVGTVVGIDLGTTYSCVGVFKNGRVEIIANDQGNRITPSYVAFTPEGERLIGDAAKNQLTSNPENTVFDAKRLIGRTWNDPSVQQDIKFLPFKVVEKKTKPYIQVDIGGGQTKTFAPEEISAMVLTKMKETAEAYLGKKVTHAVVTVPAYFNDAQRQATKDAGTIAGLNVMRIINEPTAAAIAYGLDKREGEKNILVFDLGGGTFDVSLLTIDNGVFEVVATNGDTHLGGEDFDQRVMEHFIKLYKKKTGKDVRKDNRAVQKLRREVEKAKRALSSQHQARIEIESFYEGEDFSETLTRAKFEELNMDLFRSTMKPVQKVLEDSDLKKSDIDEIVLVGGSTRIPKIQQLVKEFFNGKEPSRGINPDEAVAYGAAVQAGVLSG
# UniProt P11021, 25-654: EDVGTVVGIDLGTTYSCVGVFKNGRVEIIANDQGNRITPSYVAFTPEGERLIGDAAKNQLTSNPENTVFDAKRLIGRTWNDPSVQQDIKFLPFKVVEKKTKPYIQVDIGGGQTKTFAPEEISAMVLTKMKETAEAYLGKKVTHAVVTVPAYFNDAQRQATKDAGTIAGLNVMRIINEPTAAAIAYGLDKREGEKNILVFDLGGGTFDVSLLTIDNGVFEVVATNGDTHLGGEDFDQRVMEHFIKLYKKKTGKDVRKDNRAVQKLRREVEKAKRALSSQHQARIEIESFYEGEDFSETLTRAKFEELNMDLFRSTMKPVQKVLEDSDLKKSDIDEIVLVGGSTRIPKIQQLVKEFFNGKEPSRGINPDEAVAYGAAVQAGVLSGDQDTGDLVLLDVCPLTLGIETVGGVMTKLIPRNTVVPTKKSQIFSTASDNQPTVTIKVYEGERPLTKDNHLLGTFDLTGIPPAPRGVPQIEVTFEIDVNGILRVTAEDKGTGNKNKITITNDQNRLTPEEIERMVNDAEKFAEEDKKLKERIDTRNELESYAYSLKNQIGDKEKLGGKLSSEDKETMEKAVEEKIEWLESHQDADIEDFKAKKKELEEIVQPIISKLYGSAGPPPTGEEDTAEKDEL
# UniProt P11021, 26-405: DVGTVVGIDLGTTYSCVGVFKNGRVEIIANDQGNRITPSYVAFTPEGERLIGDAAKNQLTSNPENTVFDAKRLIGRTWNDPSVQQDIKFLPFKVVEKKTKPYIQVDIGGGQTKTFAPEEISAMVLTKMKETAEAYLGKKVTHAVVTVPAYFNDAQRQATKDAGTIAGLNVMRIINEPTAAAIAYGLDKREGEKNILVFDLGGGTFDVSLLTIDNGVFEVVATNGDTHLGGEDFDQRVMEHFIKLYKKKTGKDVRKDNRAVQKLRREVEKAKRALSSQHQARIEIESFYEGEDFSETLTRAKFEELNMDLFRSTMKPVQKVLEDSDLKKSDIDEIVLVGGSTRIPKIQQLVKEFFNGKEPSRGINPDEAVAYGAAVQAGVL
# UniProt P11021, 19-654: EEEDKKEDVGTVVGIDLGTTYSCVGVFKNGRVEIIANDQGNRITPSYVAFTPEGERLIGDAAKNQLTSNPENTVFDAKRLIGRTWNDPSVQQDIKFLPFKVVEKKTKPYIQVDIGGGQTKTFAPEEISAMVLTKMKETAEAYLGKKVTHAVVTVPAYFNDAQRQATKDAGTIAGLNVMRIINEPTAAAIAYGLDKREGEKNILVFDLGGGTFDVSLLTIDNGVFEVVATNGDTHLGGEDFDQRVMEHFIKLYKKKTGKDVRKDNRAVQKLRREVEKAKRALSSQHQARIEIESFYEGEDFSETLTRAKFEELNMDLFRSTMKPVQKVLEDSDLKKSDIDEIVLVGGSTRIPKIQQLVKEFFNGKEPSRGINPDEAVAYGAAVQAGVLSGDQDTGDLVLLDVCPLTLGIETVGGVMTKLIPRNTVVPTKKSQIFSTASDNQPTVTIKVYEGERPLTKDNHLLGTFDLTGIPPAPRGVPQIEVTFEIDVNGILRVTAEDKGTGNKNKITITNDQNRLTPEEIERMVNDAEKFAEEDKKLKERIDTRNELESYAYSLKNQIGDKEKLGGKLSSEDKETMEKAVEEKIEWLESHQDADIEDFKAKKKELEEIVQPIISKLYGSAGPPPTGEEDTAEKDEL
# UniProt P11021, 418-654: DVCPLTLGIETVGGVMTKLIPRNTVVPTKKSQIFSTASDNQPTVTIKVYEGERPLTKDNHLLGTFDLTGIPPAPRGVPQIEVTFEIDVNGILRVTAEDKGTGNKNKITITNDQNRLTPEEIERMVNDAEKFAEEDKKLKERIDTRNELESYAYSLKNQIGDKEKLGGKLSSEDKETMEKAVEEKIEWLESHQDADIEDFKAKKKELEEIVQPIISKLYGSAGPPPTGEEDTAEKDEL
# UniProt Q49AH0, 25-187: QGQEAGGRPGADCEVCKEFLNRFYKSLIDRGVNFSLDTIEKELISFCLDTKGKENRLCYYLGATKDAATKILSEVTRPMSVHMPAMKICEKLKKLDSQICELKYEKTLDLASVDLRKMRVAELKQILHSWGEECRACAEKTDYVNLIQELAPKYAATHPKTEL
# Read-outs that look alike come from different tables or passages of the source. No constants are given. Whether binding was seen depends on the method and setting. For some assays here: In cells and extracts the contact can be indirect. Some binding calls cover weakened binding; strength is not graded here.
# How the values were obtained:
# [1] = target: BiP NBD (human BiP nucleotide binding domain, aa 26-405, from 6His-Smt3-BiP NBD) (human) (UniProt P11021); assay: SEC
# [2] = target: 6His-3C-BiP FL (human full-length BiP, aa 25-654) (human) (UniProt P11021); assay: MST
# [3] = target: BiP NBD (human BiP nucleotide binding domain, aa 26-405, from 6His-Smt3-BiP NBD) (human) (UniProt P11021); assay: MST
# [4] = target: 6His-3C-BiP FL (human full-length BiP, aa 25-654) (human) (UniProt P11021); assay: pull-down
# [5] = target: 6His-3C-BiP NBD (human BiP nucleotide binding domain, aa 25-407) (human) (UniProt P11021); assay: pull-down
# [6] = target: 6His-3C-BiP SBD (human BiP substrate binding domain, aa 418-654) (human) (UniProt P11021); assay: pull-down
# [7] = target: 6His-3C-BiP NBD (human BiP nucleotide binding domain, aa 25-407) (human) (UniProt P11021); assay: pull-down; remark: listed apart in the source
# [8] = target: BiP (Grp78) split-Venus BiFC fusion (pEZY BiFC Grp78-NV(CV)) (human) (UniProt P11021); assay: split reporter
binding [1],binding [2],binding [3],binding [4],binding [5],binding [6],binding [7],binding [8],Substance
binds,binds,binds,binds,binds,no binding (tested: 100 µM CDNF),binds,,CDNF (wild type) purified from CHO cells (from UniProt Q49AH0 25-187)
,,,,,,,binds,CDNF (wild type) split-Venus BiFC fusion (pEZY BiFC pre-CDNF-NV(CV)) (from UniProt Q49AH0 25-187)
